Laboratory results reported in article PMC2702278.
Results are given in words; binding and its absence hold for the method and conditions named. In cells and extracts the contact can be indirect. A yes stands for co-enrichment or nearness to the bait. Other partners may have been found.

Amino acid sequences for entries named in this document (tags omitted). A change or cut given only in a name is not applied to a line headed by its entry.
UniProt Q96B97: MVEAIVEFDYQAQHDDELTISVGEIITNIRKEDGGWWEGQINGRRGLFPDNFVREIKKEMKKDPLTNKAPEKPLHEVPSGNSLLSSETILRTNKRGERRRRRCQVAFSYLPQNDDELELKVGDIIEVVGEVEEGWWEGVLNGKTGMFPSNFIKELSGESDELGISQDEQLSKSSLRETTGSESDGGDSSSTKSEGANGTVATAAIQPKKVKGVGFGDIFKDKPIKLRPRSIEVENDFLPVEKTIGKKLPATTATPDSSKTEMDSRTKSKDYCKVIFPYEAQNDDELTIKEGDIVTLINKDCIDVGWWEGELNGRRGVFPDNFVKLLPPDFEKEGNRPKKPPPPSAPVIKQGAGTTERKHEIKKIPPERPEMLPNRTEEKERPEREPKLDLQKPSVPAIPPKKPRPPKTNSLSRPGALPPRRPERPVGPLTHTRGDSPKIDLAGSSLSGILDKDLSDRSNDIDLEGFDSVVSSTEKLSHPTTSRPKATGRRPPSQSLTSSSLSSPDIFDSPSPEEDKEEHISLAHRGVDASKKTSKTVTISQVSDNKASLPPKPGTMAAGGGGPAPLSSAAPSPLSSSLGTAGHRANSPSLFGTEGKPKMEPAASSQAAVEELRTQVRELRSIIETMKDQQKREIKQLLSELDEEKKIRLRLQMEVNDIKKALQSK

What was measured:
Assay in all cases: affinity purification with mass spectrometry; GST-fusion SH3 domain (about 10 μg on 40 μl Glutathione Sepharose 4B) incubated 4 h at 4°C with HeLa lysate pre-cleared on GST beads; 20 mM Tris pH 7.5, 150 mM NaCl, 5 mM EDTA, 5% glycerol, 0.5% Triton X-100 (washes 0.1%); SDS-PAGE, in-gel trypsin digestion, LC-MS/MS; hits also found with GST alone removed; only the target purified
[1] = biological target: GST-fusion SH3B domain of Ruk/CIN85 (UniProt Q96B97)
[2] = biological target: GST-fusion SH3A domain of Ruk/CIN85 (UniProt Q96B97)
[3] = biological target: GST-fusion SH3C domain of Ruk/CIN85 (UniProt Q96B97)

Measured: binding

B1: Septin 7 (protein, UniProt Q16181 1-437)
chain: MSVSARSAAAEERSVNSSTMVAQQKNLEGYVGFANLPNQVYRKSVKRGFEFTLMVVGESGLGKSTLINSLFLTDLYSPEYPGPSHRIKKTVQVEQSKVLIKEGGVQLLLTIVDTPGFGDAVDNSNCWQPVIDYIDSKFEDYLNAESRVNRRQMPDNRVQCCLYFIAPSGHGLKPLDIEFMKRLHEKVNIIPLIAKADTLTPEECQQFKKQIMKEIQEHKIKIYEFPETDDEEENKLVKKIKDRLPLAVVGSNTIIEVNGKRVRGRQYPWGVAEVENGEHCDFTILRNMLIRTHMQDLKDVTNNVHYENYRSRKLAAVTYNGVDNNKNKGQLTKSPLAQMEEERREHVAKMKKMEMEMEQVFEMKVKEKVQKLKDSEAELQRRHEQMKKNLEAQHKELEEKRRQFEDEKANWEAQQRILEQQNSSRTLEKNKKKGKIF
binds: [1] | [2] | [3]

B2: SH3D19 (protein, UniProt Q5HYK7 1-790)
chain: MNIMNTEQSQNSIVSRIKVFEGQTNIETSGLPKKPEITPRSLPPKPTVSSGKPSVAPKPAANRASGEWDSGTENRLKVTSKEGLTPYPPLQEAGSIPVTKPELPKKPNPGLIRSVNPEIPGRGPLAESSDSGKKVPTPAPRPLLLKKSVSSENPTYPSAPLKPVTVPPRLAGASQAKAYKSLGEGPPANPPVPVLQSKPLVDIDLISFDDDVLPTPSGNLAEESVGSEMVLDPFQLPAKTEPIKERAVQPAPTRKPTVIRIPAKPGKCLHEDPQSPPPLPAEKPIGNTFSTVSGKLSNVERTRNLESNHPGQTGGFVRVPPRLPPRPVNGKTIPTQQPPTKVPPERPPPPKLSATRRSNKKLPFNRSSSDMDLQKKQSNLATGLSKAKSQVFKNQDPVLPPRPKPGHPLYSKYMLSVPHGIANEDIVSQNPGELSCKRGDVLVMLKQTENNYLECQKGEDTGRVHLSQMKIITPLDEHLRSRPNDPSHAQKPVDSGAPHAVVLHDFPAEQVDDLNLTSGEIVYLLEKIDTDWYRGNCRNQIGIFPANYVKVIIDIPEGGNGKRECVSSHCVKGSRCVARFEYIGEQKDELSFSEGEIIILKEYVNEEWARGEVRGRTGIFPLNFVEPVEDYPTSGANVLSTKVPLKTKKEDSGSNSQVNSLPAEWCEALHSFTAETSDDLSFKRGDRIQILERLDSDWCRGRLQDREGIFPAVFVRPCPAEAKSMLAIVPKGRKAKALYDFRGENEDELSFKAGDIITELESVDDDWMSGELMGKSGIFPKNYIQFLQIS
binds: [1] | [2] | [3]

B3: Vps37B (protein, UniProt Q9H9H4 1-285)
chain: MAGAGSEARFAGLSLVQLNELLEDEGQLTEMVQKMEETQNVQLNKEMTLASNRSLAEGNLLYQPQLDTLKARLTQKYQELQVLFEAYQIKKTKLDRQSSSASLETLLALLQAEGAKIEEDTENMAEKFLDGELPLDSFIDVYQSKRKLAHMRRVKIEKLQEMVLKGQRLPQALAPLPPRLPELAPTAPLPYPAPEASGPPAVAPRRIPPPPPPVPAGRLATPFTAAMSSGQAVPYPGLQCPPLPPRVGLPTQQGFSSQFVSPYPPPLPQRPPPRLPPHQPGFILQ
binds: [1] | [2] | [3]

B4: Septin 10 (protein, UniProt Q9P0V9 1-454)
chain: MASSEVARHLLFQSHMATKTTCMSSQGSDDEQIKRENIRSLTMSGHVGFESLPDQLVNRSIQQGFCFNILCVGETGIGKSTLIDTLFNTNFEDYESSHFCPNVKLKAQTYELQESNVQLKLTIVNTVGFGDQINKEESYQPIVDYIDAQFEAYLQEELKIKRSLFTYHDSRIHVCLYFISPTGHSLKTLDLLTMKNLDSKVNIIPVIAKADTVSKTELQKFKIKLMSELVSNGVQIYQFPTDDDTIAKVNAAMNGQLPFAVVGSMDEVKVGNKMVKARQYPWGVVQVENENHCDFVKLREMLICTNMEDLREQTHTRHYELYRRCKLEEMGFTDVGPENKPVSVQETYEAKRHEFHGERQRKEEEMKQMFVQRVKEKEAILKEAERELQAKFEHLKRLHQEERMKLEEKRRLLEEEIIAFSKKKATSEIFHSQSFLATGSNLRKDKDRKNSNFL
binds: [1] | [2] | [3]

B5: Septin 8 (protein, UniProt Q92599 1-483)
chain: MAATDLERFSNAEPEPRSLSLGGHVGFDSLPDQLVSKSVTQGFSFNILCVGETGIGKSTLMNTLFNTTFETEEASHHEACVRLRPQTYDLQESNVQLKLTIVDAVGFGDQINKDESYRPIVDYIDAQFENYLQEELKIRRSLFDYHDTRIHVCLYFITPTGHSLKSLDLVTMKKLDSKVNIIPIIAKADTISKSELHKFKIKIMGELVSNGVQIYQFPTDDEAVAEINAVMNAHLPFAVVGSTEEVKVGNKLVRARQYPWGVVQVENENHCDFVKLREMLIRVNMEDLREQTHSRHYELYRRCKLEEMGFQDSDGDSQPFSLQETYEAKRKEFLSELQRKEEEMRQMFVNKVKETELELKEKERELHEKFEHLKRVHQEEKRKVEEKRRELEEETNAFNRRKAAVEALQSQALHATSQQPLRKDKDKKNRSDIGAHQPGMSLSSSKVMMTKASVEPLNCSSWWPAIQCCSCLVRDATWREGFL
binds: [1] | [2] | [3]
